These results are taken from paper PMC12751603 (Journal of Experimental & Clinical Cancer Research : CR, 2025).

Protein sequences, listed by entry. Tags and fused reporters are not part of them. Residues count along the entry.
UniProt P08069, residues 31-1367: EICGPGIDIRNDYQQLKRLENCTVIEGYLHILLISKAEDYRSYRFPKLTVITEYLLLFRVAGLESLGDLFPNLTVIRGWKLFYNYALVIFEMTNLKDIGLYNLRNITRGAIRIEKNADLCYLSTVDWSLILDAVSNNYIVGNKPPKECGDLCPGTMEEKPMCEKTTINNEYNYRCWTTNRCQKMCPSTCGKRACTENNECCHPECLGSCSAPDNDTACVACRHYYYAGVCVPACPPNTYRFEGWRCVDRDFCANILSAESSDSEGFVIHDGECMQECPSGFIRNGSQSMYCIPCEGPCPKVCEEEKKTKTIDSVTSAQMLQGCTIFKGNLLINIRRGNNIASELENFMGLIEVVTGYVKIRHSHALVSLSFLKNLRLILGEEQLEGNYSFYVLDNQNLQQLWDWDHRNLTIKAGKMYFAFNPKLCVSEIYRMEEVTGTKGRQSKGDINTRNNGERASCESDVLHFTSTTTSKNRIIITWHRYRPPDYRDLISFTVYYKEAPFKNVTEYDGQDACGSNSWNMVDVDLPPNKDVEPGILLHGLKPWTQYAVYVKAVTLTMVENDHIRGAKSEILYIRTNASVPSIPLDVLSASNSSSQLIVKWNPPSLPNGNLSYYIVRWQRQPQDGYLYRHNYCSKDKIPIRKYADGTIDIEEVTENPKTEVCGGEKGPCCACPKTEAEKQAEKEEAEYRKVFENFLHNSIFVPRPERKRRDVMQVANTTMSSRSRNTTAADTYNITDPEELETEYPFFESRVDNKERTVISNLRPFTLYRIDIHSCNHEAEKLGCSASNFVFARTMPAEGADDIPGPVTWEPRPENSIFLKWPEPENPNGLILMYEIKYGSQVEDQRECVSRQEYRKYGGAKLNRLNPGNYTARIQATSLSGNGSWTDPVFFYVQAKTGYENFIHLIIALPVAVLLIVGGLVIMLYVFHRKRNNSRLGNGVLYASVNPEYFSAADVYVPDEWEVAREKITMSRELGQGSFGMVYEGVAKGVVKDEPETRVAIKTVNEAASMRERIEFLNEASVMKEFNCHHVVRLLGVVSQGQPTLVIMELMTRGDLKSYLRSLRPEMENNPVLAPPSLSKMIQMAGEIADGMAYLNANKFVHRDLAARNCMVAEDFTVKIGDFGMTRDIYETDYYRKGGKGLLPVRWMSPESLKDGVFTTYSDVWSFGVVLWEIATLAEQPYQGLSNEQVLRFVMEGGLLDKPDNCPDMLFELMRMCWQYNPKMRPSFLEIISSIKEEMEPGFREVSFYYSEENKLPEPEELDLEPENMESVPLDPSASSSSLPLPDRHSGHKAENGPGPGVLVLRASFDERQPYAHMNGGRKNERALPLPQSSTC

One assay deals with T1, Flag-tagged PTPN9^D470A (UniProt P43378).
T1 sequence: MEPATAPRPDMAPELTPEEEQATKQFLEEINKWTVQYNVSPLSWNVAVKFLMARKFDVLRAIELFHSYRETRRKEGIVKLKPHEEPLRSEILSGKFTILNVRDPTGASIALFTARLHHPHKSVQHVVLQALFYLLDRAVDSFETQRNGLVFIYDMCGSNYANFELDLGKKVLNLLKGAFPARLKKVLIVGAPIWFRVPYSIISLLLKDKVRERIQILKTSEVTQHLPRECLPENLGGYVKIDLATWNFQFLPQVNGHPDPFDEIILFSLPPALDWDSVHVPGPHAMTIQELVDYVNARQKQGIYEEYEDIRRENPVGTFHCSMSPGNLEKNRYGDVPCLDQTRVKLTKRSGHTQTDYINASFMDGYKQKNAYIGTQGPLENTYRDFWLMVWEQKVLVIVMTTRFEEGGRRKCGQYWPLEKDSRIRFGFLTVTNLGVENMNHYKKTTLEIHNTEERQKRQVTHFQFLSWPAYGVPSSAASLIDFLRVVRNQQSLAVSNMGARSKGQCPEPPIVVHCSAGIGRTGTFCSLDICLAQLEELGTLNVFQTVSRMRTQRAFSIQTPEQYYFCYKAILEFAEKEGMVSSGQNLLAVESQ
Briefly: affinity purification with mass spectrometry; immunoprecipitation of Flag-tagged PTPN9 trapping mutants (and empty Flag vector) from HEK293T cells, LC-MS/MS.

For a further assay, the target named is T2, Flag-tagged PTPN9^C515S (UniProt P43378).
T2 sequence: T1 sequence with A470D, C515S
Described as above.

Numbering of substitutions follows the chain as printed. These are yes or no findings as the source states them, for the method shown. Binding seen in cells or lysates may run through a third protein. These calls come from enrichment with a bait or labelling near it, and not all partners need be listed. Sequences can lack the tags named with a protein.

Take “Insulin-like growth factor 1 receptor (endogenous) (from UniProt P08069 31-1367)”: the binding entry with Flag-tagged PTPN9^D470A and with Flag-tagged PTPN9^C515S was “binds” each time.
